Values of other authors as cited in patent US12702478B2, “Devices, methods, and compositions for thermal acceleration and drug delivery” (Rhode Island Hospital, priority 2015, dated 2026).
For at least one compound, name, drawing or mass did not settle the structure.

Conditions: cited from earlier work

In the case of [Cl-].[Cs+] [CsCl, cesium chloride], the dipole moment is given as 10.4 D.
